The target in experiment [1] is T1, AtDRP2B–flag-4× c-myc (Arabidopsis thaliana) (UniProt Q9LQ55).
T1 sequence: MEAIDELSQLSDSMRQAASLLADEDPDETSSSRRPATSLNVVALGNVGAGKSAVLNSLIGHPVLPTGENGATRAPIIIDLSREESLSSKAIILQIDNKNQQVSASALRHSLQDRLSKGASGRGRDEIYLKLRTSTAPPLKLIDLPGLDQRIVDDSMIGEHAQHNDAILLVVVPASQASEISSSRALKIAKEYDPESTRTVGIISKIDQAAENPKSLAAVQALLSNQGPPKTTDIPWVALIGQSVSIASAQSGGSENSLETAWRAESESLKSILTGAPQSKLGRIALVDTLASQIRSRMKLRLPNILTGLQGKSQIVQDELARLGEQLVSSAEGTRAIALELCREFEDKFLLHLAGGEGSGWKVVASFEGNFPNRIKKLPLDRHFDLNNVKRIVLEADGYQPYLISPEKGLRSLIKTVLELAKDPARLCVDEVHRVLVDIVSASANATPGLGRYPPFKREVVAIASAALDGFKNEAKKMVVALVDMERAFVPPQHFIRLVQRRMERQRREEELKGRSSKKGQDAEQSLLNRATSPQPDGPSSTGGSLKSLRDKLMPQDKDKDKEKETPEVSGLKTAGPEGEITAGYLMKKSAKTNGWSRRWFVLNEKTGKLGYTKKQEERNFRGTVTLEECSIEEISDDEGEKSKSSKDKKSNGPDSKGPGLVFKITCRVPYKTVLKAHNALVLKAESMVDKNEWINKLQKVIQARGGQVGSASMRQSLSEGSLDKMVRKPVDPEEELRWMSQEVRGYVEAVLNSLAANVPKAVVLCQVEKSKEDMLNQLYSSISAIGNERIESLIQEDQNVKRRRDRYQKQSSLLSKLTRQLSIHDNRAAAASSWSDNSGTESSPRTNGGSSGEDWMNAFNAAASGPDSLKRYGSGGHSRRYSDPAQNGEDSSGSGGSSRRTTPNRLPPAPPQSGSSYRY
In words: co-IP; TuMV-infected tissue of transgenic Arabidopsis homogenised, captured with anti-flag M2 gel, blotted with anti-TuMV CP polyclonal antibody.

The target in experiment [2] is T2, AtDRP1A–flag-4× c-myc (Arabidopsis thaliana) (UniProt P42697).
T2 sequence: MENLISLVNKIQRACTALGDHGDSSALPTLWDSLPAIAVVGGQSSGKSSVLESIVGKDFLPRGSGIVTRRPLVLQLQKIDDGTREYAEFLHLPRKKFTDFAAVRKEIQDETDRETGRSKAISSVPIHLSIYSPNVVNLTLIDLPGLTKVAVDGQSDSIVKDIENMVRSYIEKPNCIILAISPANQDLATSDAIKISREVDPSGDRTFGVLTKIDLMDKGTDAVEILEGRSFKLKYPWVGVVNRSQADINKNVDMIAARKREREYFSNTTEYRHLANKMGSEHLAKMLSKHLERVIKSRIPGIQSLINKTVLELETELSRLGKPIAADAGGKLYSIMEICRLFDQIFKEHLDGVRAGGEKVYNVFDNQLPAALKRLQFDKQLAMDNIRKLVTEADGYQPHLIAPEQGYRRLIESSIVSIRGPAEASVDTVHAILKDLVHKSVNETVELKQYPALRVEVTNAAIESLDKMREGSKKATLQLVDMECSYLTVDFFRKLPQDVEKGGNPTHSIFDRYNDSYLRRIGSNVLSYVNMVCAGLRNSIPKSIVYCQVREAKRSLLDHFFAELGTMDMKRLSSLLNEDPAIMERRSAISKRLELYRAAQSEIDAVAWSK
In words: immunocapture RT-PCR; TuMV-infected transgenic plants captured with anti-myc polyclonal or anti-flag monoclonal antibody; viral genomic RNA of the bound virions detected by RT-PCR.

Experiment [3] deals with T1, AtDRP2B–flag-4× c-myc (Arabidopsis thaliana). Described as above.
For experiment [4], the target named is TuMV 6K2-YC (Turnip mosaic virus). In words: split reporter; BiFC in N. benthamiana leaf cells, confocal microscopy; AtDRP2B-YN with viral proteins fused to YC.
The target of experiment [5] is TuMV CI-YC (Turnip mosaic virus). Described as above.
The target of experiment [6] is TuMV CP-YC (Turnip mosaic virus). The experiment is described as above.
The target in experiment [7] is TuMV VPg-YC (Turnip mosaic virus). The description is as above.
For experiment [8], the target named is SMV CI fused to a split YFP half for BiFC (Soybean mosaic virus (SMV-L)). In words: split reporter; BiFC in N. benthamiana leaf cells; YN and YC fused to the C termini, exchanged for each pair.
Experiment [9] addresses SMV CP fused to a split YFP half for BiFC (Soybean mosaic virus (SMV-L)). Described as above.
The target in experiment [10] is SMV VPg fused to a split YFP half for BiFC (Soybean mosaic virus (SMV-L)). The description is as above.

No constants are given. Whether binding was seen depends on the method and setting. Binding can be weak; no strength is given. Tags and fused reporters may be left off the sequences shown. For some assays here: Binding seen in cells or lysates may run through a third protein.

Take “Turnip mosaic virus capsid protein from infected Arabidopsis”: the binding result in [1] was “binds”; in [2], “binds weakly”; in experiment [3], “binds”.

B1: AtDRP2A fused to a split YFP half for BiFC (protein, UniProt Q9SE83 1-914)
chain: MEAIDELSQLSDSMKQAASLLADEDPDETSSSKRPATFLNVVALGNVGAGKSAVLNSLIGHPVLPTGENGATRAPIIIELSRESSLSSKAIILQIDNKSQQVSASALRHSLQDRLSKGASGKNRDEINLKLRTSTAPPLKLVDLPGLDQRIVDESMIAEYAQHNDAILLVIVPASQASEISSSRALKIAKEYDPESTRTIGIIGKIDQAAENSKALAAVQALLSNQGPPKTTDIPWVAVIGQSVSIASAQSGSGENSLETAWRAESESLKSILTGAPQSKLGRIALVDTLASQIRSRMKLRLPSVLSGLQGKSQIVQDELARLGEQLVNSAEGTRAIALELCREFEDKFLLHLAGGEGSGWKVVASFEGNFPNRIKQLPLDRHFDLNNVKRVVLEADGYQPYLISPEKGLRSLIKIVLELAKDPARLCVDEVHRVLVDIVSASANATPGLGRYPPFKREVVAIASAALDGFKNEAKKMVVALVDMERAFVPPQHFIRLVQRRMERQRREEELKGRSSKKGQDAEQSLLSRATSPQPDGPTAGGSLKSMKDKPSPQDKETPEVSGLKTAGPEGEITAGYLMKKSAKTNGWSRRWFVLNEKTGKLGYTKKQEERNFRGTITLEECTIEEIPEDEVEKSKSSKDKKANGPDSKGPGLVFKITCKVPYKTVLKAHNALVLKAESVVDKNEWINKLQKVIQARGGQVGSVSMRQSLSEGSLDKMVRKPIDPEEELRWMSQEVRGYVEAVLNSLAANVPKAVVLCQVEKAKEDMLNQLYSSISAIGNERIESLIQEDQNVKRRRERYQKQSSLLSKLTRQLSIHDNRAAAASSYSDNSGTESSPRASGGSSGDDWMNAFNSAANGPSDSLSKYGSGGHSRRYSDPAQNGDAASPGSGSNRRTTPNRLPPAPPPTGSAYRY
With B1, the binding result in [4], in experiment [5], in [6] and in experiment [7] was “binds” in each case.

B2: GmSDL5A fused to a split YFP half for BiFC (protein, UniProt Q39828 1-610)
chain: MENLISLVNKIQRACTALGDHGENSALPTLWDSLPAIAVVGGQSSGKSSVLESVVGKDFLPRGSGIVTRRPLVLQLHKIEEGSREYAEFLHLPRKRFTDFVAVRKEIQDETDRETGRTKQISTVPIHLSIYSPNVVNLTLVDLPGLTKVAVEGQPDSIVKDIEDMVRSYIEKPNCIILAISPANQDLATSDAIKISREVDPTGDRTIGVLTKIDLMDKGTDAVDILEGRAYRLKFPWIGVVNRSQQDINKNVDMIAARRREREYFNSTPEYKHLANRMGSEHLAKMLSKHLETVIKSKIPGIQSLINKTIAELEAELTRLGKPVAADAGGKLYAIMEICRSFDQIFKDHLDGVRPGGDKIYNVFDNQLPAALKRLQFDKQLSMENIRKLITEADGYQPHLIAPEQGYRRLIESSLITIRGPAEAAVDAVHSLLKDLVHKAISETLDLKQYPGLRVEVGAAAVDSLERMRDESKRATLQLVDMECGYLTVDFFRKLPQDVDKGGNPTHSIFDRYNDSYLRRIGTTILSYVNMVCATLRNSIPKSIVYCQVREAKRSLLDHFFTELGKMETKRLSSLLNEDPAIMERRSALAKRLELYRSAQAEIDAVAWSK
For the molecule B2, the binding result in experiment [8], in experiment [9] and in experiment [10] was “binds” each time.

B3: AtDRP2B-YN (protein, UniProt Q9LQ55 1-920)
chain: MEAIDELSQLSDSMRQAASLLADEDPDETSSSRRPATSLNVVALGNVGAGKSAVLNSLIGHPVLPTGENGATRAPIIIDLSREESLSSKAIILQIDNKNQQVSASALRHSLQDRLSKGASGRGRDEIYLKLRTSTAPPLKLIDLPGLDQRIVDDSMIGEHAQHNDAILLVVVPASQASEISSSRALKIAKEYDPESTRTVGIISKIDQAAENPKSLAAVQALLSNQGPPKTTDIPWVALIGQSVSIASAQSGGSENSLETAWRAESESLKSILTGAPQSKLGRIALVDTLASQIRSRMKLRLPNILTGLQGKSQIVQDELARLGEQLVSSAEGTRAIALELCREFEDKFLLHLAGGEGSGWKVVASFEGNFPNRIKKLPLDRHFDLNNVKRIVLEADGYQPYLISPEKGLRSLIKTVLELAKDPARLCVDEVHRVLVDIVSASANATPGLGRYPPFKREVVAIASAALDGFKNEAKKMVVALVDMERAFVPPQHFIRLVQRRMERQRREEELKGRSSKKGQDAEQSLLNRATSPQPDGPSSTGGSLKSLRDKLMPQDKDKDKEKETPEVSGLKTAGPEGEITAGYLMKKSAKTNGWSRRWFVLNEKTGKLGYTKKQEERNFRGTVTLEECSIEEISDDEGEKSKSSKDKKSNGPDSKGPGLVFKITCRVPYKTVLKAHNALVLKAESMVDKNEWINKLQKVIQARGGQVGSASMRQSLSEGSLDKMVRKPVDPEEELRWMSQEVRGYVEAVLNSLAANVPKAVVLCQVEKSKEDMLNQLYSSISAIGNERIESLIQEDQNVKRRRDRYQKQSSLLSKLTRQLSIHDNRAAAASSWSDNSGTESSPRTNGGSSGEDWMNAFNAAASGPDSLKRYGSGGHSRRYSDPAQNGEDSSGSGGSSRRTTPNRLPPAPPQSGSSYRY
Take B3: the binding result in [4], in [5], in experiment [6] and in [7] was “binds” each time.
